# Results reported in article PMC4197441.
# Chains of the proteins cited; added tags and fusions are not shown.
# UniProt P34152: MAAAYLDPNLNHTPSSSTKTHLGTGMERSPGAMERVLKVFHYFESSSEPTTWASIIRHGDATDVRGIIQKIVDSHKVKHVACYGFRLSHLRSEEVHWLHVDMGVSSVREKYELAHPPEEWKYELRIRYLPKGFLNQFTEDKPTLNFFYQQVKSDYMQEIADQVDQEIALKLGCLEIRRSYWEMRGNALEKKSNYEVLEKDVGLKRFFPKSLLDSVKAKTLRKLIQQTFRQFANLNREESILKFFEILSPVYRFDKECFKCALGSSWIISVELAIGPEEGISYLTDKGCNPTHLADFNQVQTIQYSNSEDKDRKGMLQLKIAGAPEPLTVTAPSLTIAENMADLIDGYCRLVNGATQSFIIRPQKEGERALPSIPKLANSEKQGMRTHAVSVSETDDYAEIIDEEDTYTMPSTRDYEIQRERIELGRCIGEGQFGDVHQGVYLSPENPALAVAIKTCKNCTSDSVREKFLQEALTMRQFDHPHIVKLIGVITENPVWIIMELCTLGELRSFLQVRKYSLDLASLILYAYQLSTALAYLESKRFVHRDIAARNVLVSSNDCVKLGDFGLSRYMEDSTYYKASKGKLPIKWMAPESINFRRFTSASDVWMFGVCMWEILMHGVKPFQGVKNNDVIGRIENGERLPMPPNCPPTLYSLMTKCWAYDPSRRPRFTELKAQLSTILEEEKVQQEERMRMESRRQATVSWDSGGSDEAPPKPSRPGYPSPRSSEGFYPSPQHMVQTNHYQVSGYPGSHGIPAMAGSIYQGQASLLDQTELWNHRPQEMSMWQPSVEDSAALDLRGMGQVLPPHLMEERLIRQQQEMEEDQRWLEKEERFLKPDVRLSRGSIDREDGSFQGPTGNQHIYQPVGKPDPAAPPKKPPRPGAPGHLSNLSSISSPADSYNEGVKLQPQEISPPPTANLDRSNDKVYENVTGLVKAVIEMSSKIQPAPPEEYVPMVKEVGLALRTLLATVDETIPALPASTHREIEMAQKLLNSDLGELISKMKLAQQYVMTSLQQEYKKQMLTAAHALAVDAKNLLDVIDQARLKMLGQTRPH
# UniProt P26450: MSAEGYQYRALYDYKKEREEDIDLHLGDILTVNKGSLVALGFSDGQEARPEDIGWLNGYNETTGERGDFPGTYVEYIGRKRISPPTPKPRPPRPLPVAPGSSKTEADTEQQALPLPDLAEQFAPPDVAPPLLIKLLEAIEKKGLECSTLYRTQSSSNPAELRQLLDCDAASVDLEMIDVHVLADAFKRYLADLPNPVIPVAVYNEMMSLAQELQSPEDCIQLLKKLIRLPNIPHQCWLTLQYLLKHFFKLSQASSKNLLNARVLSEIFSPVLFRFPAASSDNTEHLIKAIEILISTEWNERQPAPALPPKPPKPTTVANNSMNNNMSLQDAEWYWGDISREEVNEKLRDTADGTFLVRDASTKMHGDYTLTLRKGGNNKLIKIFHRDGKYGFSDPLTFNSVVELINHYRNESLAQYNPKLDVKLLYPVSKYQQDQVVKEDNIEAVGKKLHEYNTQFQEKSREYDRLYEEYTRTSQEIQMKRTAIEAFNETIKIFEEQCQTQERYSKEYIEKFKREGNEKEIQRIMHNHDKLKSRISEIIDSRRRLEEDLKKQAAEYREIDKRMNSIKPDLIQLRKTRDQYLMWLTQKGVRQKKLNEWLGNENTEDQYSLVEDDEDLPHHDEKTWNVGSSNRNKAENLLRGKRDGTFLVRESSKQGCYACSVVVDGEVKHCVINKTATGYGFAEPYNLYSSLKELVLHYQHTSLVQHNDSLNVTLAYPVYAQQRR
# Results are given in words; binding and its absence hold for the method and conditions named. Binding seen in cells or lysates may run through a third protein. Some entries that bind do so weakly or less than the wild type.
# Biological target: focal adhesion kinase (mouse (endogenous in NIH3T3)) (UniProt P34152)
# Experiment: co-IP; NIH3T3 cell extracts (500 µg, TX-100 lysis buffer) immunoprecipitated with anti-FAK Ab, WB with anti-HA Ab; cells without serum 16 h, then 10% serum (in suspension), FN, or FN plus serum for 20 or 60 min
substance,measurement,value
recombinant HA-tagged p85α (regulatory subunit of phosphoinositide 3-kinase) (from UniProt P26450 1-724),binding,binds
